The other results are listed elsewhere or left out. Shown are side measurements of this screen, not its main read-out; they come without a call. Compounds called inactive in the main read-out are mostly missing here. Words in brackets tell the shape of the fitted curve; partial curves, single points and poor fits give uncertain potencies.
Test: qHTS Assay for Lipid Storage Modulators in Drosophila S3 Cells;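 on cell number change: cells counted by Cell Tracker Red CMTPX staining in the red channel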
Conditions: BODIPY lipid droplet fluorescence, 18-24 h; for cell number change: measured here: cell count max response, cells fed with added oleic acid
In short: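 Drosophila S3 cells got compounds at several concentrations plus oleic acid (400 uM solution). Laser-scanning cytometry with 488 nm excitation read lipid droplets at 500-530 nm and cells at 575-640 nm. Percent activity was relative to 20 uM Triacsin C.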

[1] = measured here: lipid fluorescence (Fed channel) AC50, cells fed with added oleic acid
[2] = measured here: cell number channel AC50, cells fed with added oleic acid

| SMILES | AC50 [1] | cell number change | AC50 [2] |
| --- | --- | --- | --- |
| COCCNC(=O)c1ccc2c(=O)n(Cc3ccco3)c(SCC(=O)Nc3ccc(OC)cc3OC)nc2c1 | 0.58 µM [rising, single point] | – | – |
| Cc1cc(OCc2nc3ccccc3s2)ccc1N | – | 26.5% | 1.64 µM [rising, full curve, poor fit] |
| CCN(Cc1nc2ccccc2c(=O)[nH]1)C(=O)c1cc(C2CC2)nn1-c1ccccc1 | 3.66 µM [falling, full curve] | 1.13% | – |
| Cc1cc(C)cc(NC(=O)CCc2ccc(C)o2)c1 | 29.1 µM [rising, single point] | – | – |
| CC(C)CC(=O)Nc1ccc(-c2cn3ccsc3n2)cc1 | 29.1 µM [rising, single point] | 4.61% | – |
| COc1ccc(-c2c(-c3cc(OC)cc(OC)c3)n(C)c3ccc(-c4ccc(OC)cc4F)cc23)cc1 | 0.184 µM [rising, full curve, poor fit] | 20.6% | – |
| CC(C)c1ccc(C(C(=O)NC2CCCC2)N(C(=O)CNC(=O)c2ccco2)c2cccnc2)cc1 (configuration not stated) | 1.64 µM [rising, full curve, poor fit] | 0.546% | – |
| Cn1ncc(Cl)c1C(=O)N1CCN(c2ncccn2)CC1 | – | -50.6% | 2.06 µM [falling, partial curve, poor fit] |
| N#Cc1c2c(c(NCc3cccnc3)n3c1nc1ccccc13)CCC2 | – | – | 0.103 µM [rising, full curve, poor fit] |
| COc1ccccc1C(=O)OCCN1CCOCC1 | 0.651 µM [falling, full curve] | 0.932% | – |
| CCN(CC)CCCn1c(SCC(=O)Nc2cccc(F)c2)nnc1-c1ccoc1C | 0.58 µM [falling, single point] | 10.8% | – |
| O=S(=O)(NCCc1ccccc1)c1cnc(Cl)c(Br)c1 | 6.51 µM [falling, single point] | -17.7% | – |
| O=C(CN(c1ccccc1Cl)S(=O)(=O)c1ccccc1)NCc1ccccc1 | 0.58 µM [rising, single point] | – | – |
| Cc1noc(C)c1CSCC(=O)Nc1nnc(CC(C)C)s1 | 1.03 µM [rising, partial curve] | 33.5% | – |
| NC(=O)CC(NC(=O)c1ccccc1)c1ccc(NCCN2CCCCC2)c([N+](=O)[O-])c1 (configuration not stated) | 0.58 µM [rising, single point] | 9.71% | – |
| Cc1ccc(C2NC(=O)Cc3ccccc32)cc1 (configuration not stated) | 6.51 µM [falling, single point] | – | 6.51 µM [falling, single point] |
| C#CCOc1c(Br)cc(/C=C2/C(=O)ON=C2C)cc1OC | – | – | 4.11 µM [rising, single point] |
| Cc1nc2ccccc2n1C(=O)c1cc(-c2ccc(Br)cc2)nc2ccccc12 | 29.1 µM [rising, single point] | 5.41% | – |
| CC(=O)OCC1=C[C@@H]2OC(=O)C3=CO[C@@H](O[C@@H]4O[C@H](CO)[C@@H](O)[C@H](O)[C@H]4O)[C@H]1[C@@H]32 | 0.58 µM [rising, partial curve] | -5.63% | 1.03 µM [falling, single point] |
| CCCc1cc(NC(=O)COC(=O)c2nccnc2N)n(-c2ccccc2)n1 | 0.116 µM [falling, full curve, poor fit] | -20% | – |

| SMILES | AC50 [1] | cell number change | AC50 [2] |
| --- | --- | --- | --- |
| COc1ccc(CNC(=O)CNC(=O)c2cccs2)c(OC)c1 | 0.58 µM [rising, partial curve, poor fit] | 5.7% | – |
| C=CCOc1ccc(/C=N/NC(=O)CN(c2cc(Cl)ccc2OC)S(=O)(=O)c2ccc(C)c([N+](=O)[O-])c2)cc1 | 4.11 µM [rising, partial curve, poor fit] | 20.5% | – |
| Cc1nc2c(O)cccc2cc1CO | – | -35.2% | 16.4 µM [falling, single point] |
| CN(C)c1nc(N(C)C)n(Cc2c(Cl)cccc2Cl)n1 | – | -2.71% | 4.11 µM [rising, partial curve] |
| Cc1ccc(S(=O)(=O)N2c3ccccc3NC(=O)CC2C)cc1 (configuration not stated) | 6.51 µM [falling, single point] | -32% | 4.11 µM [falling, partial curve, poor fit] |
| CC1=C(C(=O)OC2CCC(C)CC2)C(c2ccc(O)c([N+](=O)[O-])c2)NC(=O)N1 (configuration not stated) | 29.1 µM [falling, single point] | -8.8% | – |
| COc1ccc(S(=O)(=O)Nc2nc3ccccc3nc2NCC2CCCO2)cc1 (configuration not stated) | 16.4 µM [rising, partial curve, poor fit] | 17% | – |
| Cn1c(SCC(=O)O)nnc1C1CCCCC1 | 23.1 µM [falling, partial curve] | -17.3% | – |
| CCN1CCc2c(C#N)c(N3CCOCC3)nc(NCc3ccccc3)c2C1 | – | 227% | 29.1 µM [rising, single point] |
| Cc1cc(C)c2nc(NC(=O)[C@@H](NC(=O)c3cccc(S(=O)(=O)N4CCOCC4)c3)C(C)C)sc2c1 | 20.6 µM [falling, single point] | -41.9% | 10.3 µM [falling, partial curve, poor fit] |
| Cc1nn(C)c(C)c1CCC(=O)NC1CC(C)(C)Cc2c1cnn2-c1ccccc1 (configuration not stated) | 29.1 µM [falling, single point] | 2.7% | – |
| Fc1ccc(Br)cc1/C=N/n1cnnc1 | 0.731 µM [rising, partial curve] | 8.51% | – |
| Cc1nccn1CCC(=O)Nc1ccc(Cl)cc1 | 18.4 µM [rising, single point] | – | – |
| Cc1cc(NC(=O)COC(=O)CSCc2ccc(Cl)c(Cl)c2)no1 | 20.6 µM [falling, partial curve, poor fit] | 2.66% | – |
| CC1c2ccsc2CCN1S(=O)(=O)c1cccs1 (configuration not stated) | 29.1 µM [rising, single point] | 14.3% | – |
| O=C(/C=C/c1ccc([N+](=O)[O-])s1)N1CCCC1 | – | -37.7% | – |
| CCOCCCNC(=O)c1ccc(CS(=O)(=O)Cc2ccc(C)cc2)o1 | – | -3.5% | – |
| Cc1ccc2nc(SC(C(=O)c3ccccc3)c3ccccc3)nc(C)c2c1 (configuration not stated) | 23.1 µM [rising, single point] | 38.5% | 29.1 µM [rising, single point] |
| CCOC(=O)Cc1csc(-n2sc3ccccc3c2=O)n1 | 18.4 µM [falling, partial curve] | -67.8% | 25.9 µM [falling, partial curve] |

Nothing new here: an excerpt of the list.

| SMILES | AC50 [1] | cell number change | AC50 [2] |
| --- | --- | --- | --- |
| COc1ccc(S(=O)(=O)Nc2nc3ccccc3nc2NCC2CCCO2)cc1 (configuration not stated) | 16.4 µM [rising, partial curve, poor fit] | 17% | – |
| Cn1c(SCC(=O)O)nnc1C1CCCCC1 | 23.1 µM [falling, partial curve] | -17.3% | – |

Remaining list, next part.

| SMILES | AC50 [1] | cell number change | AC50 [2] |
| --- | --- | --- | --- |
| CC1=C(C#N)C(/C=N/OCc2ccc(Cl)cc2)CC(=O)N1 (configuration not stated) | – | 100% | 5.8 µM [rising, full curve] |
| CCOC(=O)C1CCCN(c2c(NCCc3cccc(C)c3)c(=O)c2=O)C1 (configuration not stated) | – | -6.3% | – |
| COc1cc(/C=N\Nc2ccc([N+](=O)[O-])cn2)ccc1OCC(=O)O | 23.1 µM [falling, single point] | -20.3% | 3.66 µM [rising, single point] |
| Cc1ccc(S(=O)(=O)c2c(N)n(CCC(C)C)c3nc4ccccc4nc23)cc1 | – | -24.4% | – |
| COC(=O)c1ccccc1NC(=O)COc1ccccc1 | 0.731 µM [rising, single point] | -0.153% | – |
| C/C(N)=C(/C#N)C(=O)CSc1ccccc1F | – | 58.6% | – |
| COCCNC(=O)C1CC(c2ccc(F)cc2)=NO1 (configuration not stated) | 0.00461 µM [falling, full curve, poor fit] | – | – |
| COc1ccc2cc(C(=O)C3CCCN(C(=O)Cc4c(C)noc4C)C3)ccc2c1 (configuration not stated) | 10.3 µM [falling, partial curve] | -26.3% | – |
| Cc1ccc(NCC(=O)N/N=C\c2ccc([N+](=O)[O-])o2)cc1 | 20.6 µM [falling, partial curve] | -11.1% | – |
| Cc1cc(C(=O)NN)c(C)o1 | 1.3 µM [falling, full curve, poor fit] | -11.2% | – |
| Cn1c(=O)[nH]c(=O)c2c1nc(N1CCN(C(c3ccccc3)c3ccccc3)CC1)n2CCO | – | – | 6.51 µM [rising, single point] |
| Cc1ccc(C)c(N2CCN(C(=O)C3CCCN(S(=O)(=O)c4c(C)[nH]c(=O)[nH]c4=O)C3)CC2)c1 (configuration not stated) | – | 31.4% | 14.6 µM [rising, single point] |
| COc1ccc(N(CC(=O)NCc2ccc(C)cc2)S(=O)(=O)c2c(C)[nH]c(=O)[nH]c2=O)cc1 | – | -10.1% | – |
| CCOC(=O)/C(C#N)=C/Nc1ccccc1NS(=O)(=O)c1cccc(C(C)=O)c1 | – | 37.1% | 0.231 µM [rising, full curve, poor fit] |
| CCN(c1ccccc1)S(=O)(=O)c1ccc2c(c1)C(C)(C)C(=O)N2C | 32.6 µM [falling, single point] | 5.19% | – |
| CCNC(=S)N/N=C/c1c(Cl)cccc1Cl | 25.9 µM [falling, single point] | -53.7% | 16.4 µM [falling, single point] |
| COc1ccc(CC(=O)NNS(=O)(=O)c2ccc(F)cc2)cc1OC | 6.51 µM [falling, single point] | -11.8% | – |
| CCN(Cc1cccs1)C(=O)c1cccc(S(=O)(=O)N2CCN(C)CC2)c1 | – | 2.96% | – |
| COc1ccc(/C=C/C(=O)NC(=S)Nc2ccc(S(=O)(=O)Nc3cc(OC)ncn3)cc2)cc1 | 0.259 µM [falling, partial curve, poor fit] | -3.45% | – |
| O=C(Nc1nc(-c2ccco2)c(-c2ccco2)s1)c1c(F)cccc1Cl | – | -31.4% | 29.1 µM [falling, single point] |

From PubChem BioAssay AID2685 (National Center for Advancing Translational Sciences (NCATS), 2010)
